Assay results as given in PubChem BioAssay AID1508600 (Functional Genomics Laboratory (NCATS/FGL), 2020).
In all, about 53,000 sequences went through this assay and about 3,700 (7%) were called active.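 Rule for the calls: active = gene knockdowns whose robust z-score for IL-1 alpha signal is at least 2 or at most -2, so actives lie on both sides; inactive = the rest.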 The list shows a part of the results.

Test: Components of the Cytosolic LPS Sensing Pathway: Gene Identification via Genome-wide siRNA Screen;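 note: robust z of the log signal after scaling to non-targeting control siRNA wells of the plate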
Settings: RAW264.7 macrophages, IL-1a HTRF, actives lie on both sides, screened at 100 nM (by protocol), cells primed 5 h with Pam3CSK4 first
In short: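 RAW264.7; siRNA 100 nM final, RNAiMAX, 48h 37 degrees C; Pam3CSK4 5 h; LipidA + TransIT-TKO 24 h; IL-1a HTRF; CellTiter-Glo viability; robust z vs negative-control median.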
With GGUAACUGAGAAAACCAGATT against Adam29 the z-score was inactive: -0.105.
In the case of GGAAGGAUAUUGGUUACCATT against Zmynd11, the z-score is reported as active: -2.28.
For CCGGAGAUUUGCUCUUAGUTT against Pcdhb3, the z-score was inactive: -0.668.
In the case of GGUGUCAGCGAAAAGCAGUTT against Ring1, the z-score is reported as active: -2.2.
With CGGCGAGUUCACAUUUCUGTT against Tmed1 the z-score was inactive: -0.278.
With GGUAUGACCCAGAAGAAGGTT against Pip5k1c the z-score was inactive: -0.664.
With CCAGUUAAGGCCAUUGUAATT against Jdp2 the z-score was inactive: -0.774.
With GCCGUUCCUAUGUCUAUGCTT against Serpina1b the z-score was inactive: 0.0725.
With GGUUAUAGCAAAGCUGAAATT against Ctu1 the z-score was inactive: -0.623.
For GGGAUAAAGAGCAAAGAAUTT against Trdv2-2, the z-score was inactive: -0.466.
In the case of GGAGCUGACCUAUCUCAAGTT against Krt25, the z-score is reported as inactive: 0.322.
With CCCUCAUGGUACCUUGGCATT against Slc7a4 the z-score was inactive: -1.14.
In the case of GGUUCAAACAGAGACUCCATT against Slx4ip, the z-score is reported as inactive: -1.89.
In the case of “GCUAUCUCUCUUUUCAACATT against 4732465J04Rik”, the z-score is reported as inactive: -1.47.
With GCUAUGAGUUUGGAAAAAGTT against Rsph1 the z-score was inactive: -0.85.
In the case of GCAUGUUAAGGAGACUCAGTT against Golph3, the z-score is reported as inactive: 0.748.
With GCAGUAAGCUUUUGCUAAATT against Zfp334 the z-score was inactive: 1.26.
With GGUCUUGACCACACGAUGUTT against Tmem82 the z-score was inactive: 0.617.
For GGCAAAAGAUUACAACAGATT against H1f7, the z-score was inactive: -1.81.
For GGAGACCUUAAAAGAACAUTT against Ccdc134, the z-score was inactive: 0.775.
With GACAUUUGUAUGCAGUCAUTT against Vmn1r193 the z-score was active: -2.65.
With GGACAAAUGGGUAUUAUCUTT against Phxr4 the z-score was inactive: -1.01.
In the case of GCCACUUACCCUUUCAGGCTT against Nfe2, the z-score is reported as inactive: 0.772.
With CCGACUUUGCCAGGAUUUCTT against Fbxl7 the z-score was inactive: 0.924.
For GCAGGUUAGACCAUGGCUATT against Diras2, the z-score was inactive: -0.667.
For GGUUUCAAGAAAGAUAUGATT against Cntnap5b, the z-score was inactive: -0.891.
For GGUUCUCUAACAGAACUUUTT against Zc3h6, the z-score was inactive: 0.768.
In the case of GGAACCUUACUCAUGUCCCTT against Tlr6, the z-score is reported as inactive: -0.773.
In the case of GGACGAAGACACCAAAGUGTT against Camk2a, the z-score is reported as inactive: -1.31.
For GGAUCUGAAACAAAAACACTT against Slc8a3, the z-score was inactive: -1.3.
With GGCGACUCCAUCUAAACAATT against Slitrk5 the z-score was inactive: -0.709.
In the case of CCAAAUCGCUUCACAUAAUTT against Atp6v1g2, the z-score is reported as inactive: -1.1.
In the case of GGCCCUUCAAGAAUCUCUGTT against Rnf212, the z-score is reported as inactive: -0.468.
In the case of GCUUGUGCCGGAUAAAGGUTT against Gng3, the z-score is reported as inactive: -0.748.
In the case of CCCAAUGAUCCUAACCAUUTT against Zfp459, the z-score is reported as inactive: -1.08.
In the case of CCAUUCCGGUUACUUUCGATT against Hspb1, the z-score is reported as inactive: 1.37.
With GGACACAAAGGAAUCUCUUTT against Olfr374 the z-score was inactive: -0.141.
In the case of GUACCUCUUCUCUAUCACUTT against Pla2g2e, the z-score is reported as inactive: 1.77.
In the case of CCUUGCUUAUUAGUCAAGUTT against Tti1, the z-score is reported as inactive: -0.123.
For GGAAGAUUUGUUCUAUACUTT against Epgn, the z-score was inactive: 0.593.
In the case of GCAUGGAAAAAGGCUUUGATT against Olfr91, the z-score is reported as inactive: -0.0717.
For GGUUUUCAUGGUUAUCUGATT against Nrgn, the z-score was inactive: -0.427.
In the case of GGUGGAUAACGGCAAUAUUTT against Rfesd, the z-score is reported as inactive: -1.08.
With GGCAGAAUUGGCACAGAAATT against Zrsr2 the z-score was inactive: 0.201.
For CGAAAAGAAGUGUUUCCUGTT against Lamb2, the z-score was inactive: 2.
For CGUGGUUGAACUUUGUCCGTT against C1qtnf12, the z-score was inactive: -0.569.
With CCGUCUAUACAUCUUUCCATT against Dab2 the z-score was inactive: 0.00714.
For CAAGAUAACCAGGUUAAUCTT against Adam6b, the z-score was inactive: 0.297.
For GGAGAAAUGAAAAAACAGUTT against Tmed4, the z-score was inactive: 1.05.
In the case of CGAGAUAGACCGAAAACUGTT against Rad54l, the z-score is reported as inactive: 0.304.
With GCACUGUAACAGCGAGUUATT against Tdgf1 the z-score was inactive: -0.218.
For GCUAAUCAACAUCUACUUGTT against Nmt2, the z-score was inactive: 1.14.
With GGUUACCAGUAUGUCUUAGTT against Cryba2 the z-score was inactive: -0.117.
With GUACAAAGCCUUUAAAGAUTT against Ang3 the z-score was inactive: -0.725.
In the case of GGAAACCGUUCUCAUUAAATT against Mrpl30, the z-score is reported as inactive: 0.599.
For GCUGUAAGCUACCGUCUGUTT against Panx2, the z-score was inactive: 1.54.
In the case of GUGAUGAGAGGCCUUUCACTT against Vmn1r-ps8, the z-score is reported as inactive: -0.668.
With GGAUGUUACCUUGGUGGGUTT against Olfr1323 the z-score was inactive: 0.269.
In the case of GGGAUCCUUAAUAUUUUGATT against Dazap2, the z-score is reported as inactive: 1.66.
With GGUUCUACUCUAUCAAGGATT against Nlrp3 the z-score was inactive: 0.449.
In the case of GGUUUCUUUCUCUGAGUUUTT against Man2a1, the z-score is reported as inactive: 1.62.
In the case of GGAAACCUCAUACAAAACATT against Tex14, the z-score is reported as inactive: -0.396.
In the case of GCCUACAUAACCUUAAUAUTT against Slc4a10, the z-score is reported as active: 2.2.
With GGAGAAAAUAACUUGUUUCTT against Ssr3 the z-score was inactive: -0.189.
In the case of GGCAACAAGAGCUUUACUCTT against Gabrp, the z-score is reported as inactive: -0.0644.
With GGAUCAUCCAAGUGUUCCGTT against Olfr555 the z-score was inactive: 1.51.
In the case of “GCAAGUCUCUGCGCUAUUATT against 4931417E11Rik”, the z-score is reported as inactive: 0.813.
In the case of GGAUGCUGUGAGAAGAACUTT against Olfr1416, the z-score is reported as inactive: 0.951.
With GGGUUUAGAGACCCUGAGATT against Klc2 the z-score was active: -2.09.
For GGAACAAUUGUUUGAACCCTT against Fem1a, the z-score was inactive: -0.116.
With GGAAGACUCUGAAUUAGGGTT against Dusp13 the z-score was inactive: -0.28.
With CCAGAUAAACCAUAUCCCATT against Flrt2 the z-score was inactive: -1.06.
For GCCAUGGUAAACAUCUUAUTT against Olfr827, the z-score was inactive: -1.38.
For GGAAGCCAUCAUGAAAAUGTT against Zfand3, the z-score was inactive: 0.184.
In the case of GCUAAGAACUUGAUCAACCTT against Camk2g, the z-score is reported as inactive: -0.673.
For GGCUCAGAAUUAUCUUAGATT against Mmp7, the z-score was inactive: -0.478.
With GGUCGCUACGUUUCUACAATT against Loxl1 the z-score was inactive: 0.108.
With GGAUGAAGACCUUUCGGAGTT against Mapk8ip1 the z-score was inactive: 0.0581.
In the case of GGCAACUUUAUACACAAACTT against Vmn1r13, the z-score is reported as inactive: -0.283.
With GGUUAAAGGUCAGAUUUAGTT against Dapk2 the z-score was active: 2.54.
In the case of GGUAAUUCGGUUCAAACCATT against Henmt1, the z-score is reported as inactive: -0.873.
For GCUCGCUCUCAAAUUUUCGTT against Catsper1, the z-score was inactive: -0.446.
For GGAGCUACAGGCUAUCAGUTT against Bpi, the z-score was inactive: -1.78.
In the case of GGUACAGAACUCAUUUUUGTT against Grm6, the z-score is reported as inactive: 0.167.
For GGUAGGGACCUAUCCUUGGTT against Cramp1l, the z-score was inactive: -0.518.
In the case of GGAGAAACAGCAGUACUUGTT against Hmg20b, the z-score is reported as inactive: 0.0903.
With GCUUAUGGGUGGCUUUAAGTT against Knop1 the z-score was inactive: 1.02.
For CGACUGGGUCUUAUGUUUATT against Tas2r121, the z-score was inactive: -0.105.
In the case of GCAGAGGACAAGAAGCUUATT against Macroh2a2, the z-score is reported as inactive: -1.4.
With GGUGCAUUCCUUGUGAAUGTT against Ctbp2 the z-score was inactive: 0.141.
For GGUGAAAAUCAAGCUUGCUTT against Htr1d, the z-score was inactive: -0.725.
In the case of CGGGUAUCCAAAGUUGUUCTT against Hpx, the z-score is reported as inactive: -1.09.
With GGAUCUUGAGUUGGAGUCCTT against Nupr1l the z-score was inactive: -0.319.
In the case of GGCAUAACCGCCAUGUCAGTT against Mnd1, the z-score is reported as inactive: -1.74.
For ACUGUCAUGCACCCUAAAGTT against Olfr132, the z-score was inactive: 0.369.
In the case of GGCAAUGCUGGAUUCUCUATT against Capn15, the z-score is reported as inactive: 0.0127.
In the case of GGUAUUCUCUAAGAAGGAGTT against Kyat1, the z-score is reported as inactive: 0.367.
For CCAAUCCUCAACCUUGAAUTT against Ddx19a, the z-score was inactive: 0.0508.
In the case of CCCAGGCUAUGACGAUUAUTT against Ssrp1, the z-score is reported as inactive: 0.21.
In the case of GGAUUUUCAUACAAGGGCATT against Fmn1, the z-score is reported as inactive: 0.579.
In the case of GGCUCUGCUAUUCACCAGUTT against Olfr1008, the z-score is reported as inactive: 0.442.
In the case of CCGUUUCUUCCUAAUUGGUTT against Tmem41b, the z-score is reported as inactive: 0.929.
With GGUAUUGCUGUGCUGAGGATT against Olfr675 the z-score was inactive: 0.858.
In the case of “GGCUGUGCAACAGAAAAUGTT against 2210407C18Rik”, the z-score is reported as inactive: -0.661.
For GGUCUAUGUCCAAAAAGAATT against Fam117b, the z-score was inactive: -1.45.
In the case of GCCUAUUGUAAAUACAGGUTT against Bdnf, the z-score is reported as inactive: 0.6.
